In paper PMC4036362, “Normal Activation of Discoidin Domain Receptor 1 Mutants with Disulfide Cross-links, Insertions, or Deletions in the Extracellular Juxtamembrane Region” (The Journal of Biological Chemistry, 2014):
Positions count from the first letter of the chain named. Numbers in names are those of the source. No constants are given. Whether binding was seen depends on the method and setting. Binding seen in cells or lysates may run through a third protein. Some binding calls cover weakened binding; strength is not graded here. One block for each molecule: values may come before it.

Legend:
Assay in all cases: cross-linking; disulfide cross-linking of introduced cysteines in transiently transfected HEK293 cells, untreated or with 10 ug/ml collagen I for 90 min at 37 °C; lysis in 1% Nonidet P-40 buffer with NEM; nonreducing SDS-PAGE on 5% gels, Western blot with anti-DDR1; efficiency as percent dimeric of total DDR1
[1] = target: DDR1 E412C/C422A (in the C287S/C422A background) (human) (UniProt Q08345)
[2] = target: DDR1 G377C (in the C287S background) (human) (UniProt Q08345)
[3] = target: DDR1 L247C (in the C287S background) (human) (UniProt Q08345)
[4] = target: DDR1 P387C (in the C287S background) (human) (UniProt Q08345)
[5] = target: DDR1 V220C (in the C287S background) (human) (UniProt Q08345)
[6] = target: DDR1 V408C/C422A (in the C287S/C422A background) (human) (UniProt Q08345)
[7] = target: DDR1 A417C (in the C287S background) (human) (UniProt Q08345)
[8] = target: DDR1 G421C (in the C287S background) (human) (UniProt Q08345)
[9] = target: DDR1 residue 418 to cysteine (in the C287S background) (human) (UniProt Q08345)
[10] = target: DDR1 residue 419 to cysteine (in the C287S background) (human) (UniProt Q08345)
[11] = target: DDR1 residue 420 to cysteine (in the C287S background) (human) (UniProt Q08345)

Molecule: DDR1 G377C (in the C287S background) (from UniProt Q08345 19-913) (receptor)
binding [2]: binds

Molecule: DDR1 L247C (in the C287S background) (from UniProt Q08345 19-913) (receptor)
binding [3]: binds

Molecule: DDR1 P387C (in the C287S background) (from UniProt Q08345 19-913) (receptor)
binding [4]: binds

Molecule: DDR1 V220C (in the C287S background) (from UniProt Q08345 19-913) (receptor)
binding [5]: binds

Molecule: DDR1 V408C/C422A (in the C287S/C422A background) (from UniProt Q08345 19-913) (receptor)
binding [6]: binds

B1: DDR1 A417C (in the C287S background) (receptor, human, UniProt Q08345 19-913, looked up)
chain: DADMKGHFDPAKCRYALGMQDRTIPDSDISASSSWSDSTAARHSRLESSDGDGAWCPAGSVFPKEEEYLQVDLQRLHLVALVGTQGRHAGGLGKEFSRSYRLRYSRDGRRWMGWKDRWGQEVISGNEDPEGVVLKDLGPPMVARLVRFYPRADRVMSVCLRVELYGCLWRDGLLSYTAPVGQTMYLSEAVYLNDSTYDGHTVGGLQYGGLGQLADGVVGLDDFRKSQELRVWPGYDYVGWSNHSFSSGYVEMEFEFDRLRAFQAMQVHSNNMHTLGARLPGGVECRFRRGPAMAWEGEPMRHNLGGNLGDPRARAVSVPLGGRVARFLQCRFLFAGPWLLFSEISFISDVVNNSSPALGGTFPPAPWWPPGPPPTNFSSLELEPRGQQPVAKAEGSPTCILIGCLVAIILLLLLIIALMLWRLHWRRLLSKAERRVLEEELTVHLSVPGDTILINNRPGPREPPPYQEPRPRGNPPHSAPCVPNGSALLLSNPAYRLLLATYARPPRGPGPPTPAWAKPTNTQAYSGDYMEPEKPGAPLLPPPPQNSVPHYAEADIVTLQGVTGGNTYAVPALPPGAVGDGPPRVDFPRSRLRFKEKLGEGQFGEVHLCEVDSPQDLVSLDFPLNVRKGHPLLVAVKILRPDATKNARNDFLKEVKIMSRLKDPNIIRLLGVCVQDDPLCMITDYMENGDLNQFLSAHQLEDKAAEGAPGDGQAAQGPTISYPMLLHVAAQIASGMRYLATLNFVHRDLATRNCLVGENFTIKIADFGMSRNLYAGDYYRVQGRAVLPIRWMAWECILMGKFTTASDVWAFGVTLWEVLMLCRAQPFGQLTDEQVIENAGEFFRDQGRQVYLSRPPACPQGLYELMLRCWSRESEQRPPFSQLHRFLAEDALNTV
notes: discoidin domain receptor 1, isoform DDR1b, human; full-length cDNA in pRK5; source: HEK293, transiently transfected, in lysate
binding [7]: binds

B5: DDR1 residue 420 to cysteine (in the C287S background) (receptor, human, UniProt Q08345 19-913, looked up)
chain: B1 chain with C399A, I402C
notes: discoidin domain receptor 1, isoform DDR1b, human; full-length cDNA in pRK5; also called TM cysteine mutant, residue 420; source: HEK293, transiently transfected, in lysate
binding [11]: binds

Results, then the molecule that gave them:

binding [1]: binds
Molecule: DDR1 E412C/C422A (in the C287S/C422A background) (from UniProt Q08345 19-913) (receptor)

binding [8]: binds
B2: DDR1 G421C (in the C287S background) (receptor, human, UniProt Q08345 19-913, looked up)
chain: B1 chain with C399A, G403C
notes: as for B1

binding [9]: binds
B3: DDR1 residue 418 to cysteine (in the C287S background) (receptor, human, UniProt Q08345 19-913, looked up)
chain: B1 chain with C399A, I400C
notes: as for B1

binding [10]: binds
B4: DDR1 residue 419 to cysteine (in the C287S background) (receptor, human, UniProt Q08345 19-913, looked up)
chain: B1 chain with C399A, L401C
notes: discoidin domain receptor 1, isoform DDR1b, human; full-length cDNA in pRK5; also called TM cysteine mutant, residue 419; source: HEK293, transiently transfected, in lysate
